In doi:10.1101/157743:

Molecular target: tandem Myc epitope fusion of PGM2 (Myc2-PGM2) (Toxoplasma gondii)
Experiment: co-IP

B1: parafusin related protein 1 (PRP1) (protein, UniProt Q95WU0 1-637)
chain: MGAKASRMRTKEEACRGSANPSHKGLPADQILSRPTTAYQDQKPGTSGLRKKTKVFMQKDYLANFAQSVFNCLPEEEKKGGTLLVSGDGRFFSHEAIYEICSIAAGNGVGRVWIGLNGLASTPACSAIIRERENGICFGGFLLTASHNPGGIDEDFGVKYDTANGAPGYEALMNEVWEKSKTISTIKYAKLPKFSIDKLGVQVNIDGAFQVEVIDPIEDWLKLMKEAFHFPAIKRLLALPHFSFVYDSMHGVSGPYAEKLFIEEFGAKRECLMRQDPLPDFGGHHPDPNLTYAEELVAKMKVLHPDQVDASTPLFGAAGDGDCDRNMILGRGFFVTPSDSVALIALYAEKCIPYFFVDKATGKGGLTGLARSMPTSRALDNVAKKLNKDVYETPTGWKYFTNLMDASRISICGEESFGTGSVHVREKDGLWAVLAWLSILAYRNGCMGDVEKERELLQEGKSVDVSPPATKETDFVSVQQIVEEFWKEYGRNFYCRYDFENKDSASAHEMLQALEELSKSSPAEITGKVASHVDENLLKEMEIDSMDWFKYTDPVDKQVSDHQGVRLFLKGGSRIIWRLSGTGSTGATIRVYMERYEPDASKVLQDERTALKDIAAFALQFCDMKKYIGTETPTVIT
  binding: no binding

Results are given in words; binding and its absence hold for the method and conditions named. Binding seen in cells or lysates may run through a third protein. Tags and fused reporters may be left off the sequences shown.
